# US20240016924A1, “NEW ADJUVANT TO IMPROVE THE INNATE IMMUNITY” (INSTITUT NATIONAL DE LA SANTÉ ET DE LA RECHERCHE MÉDICALE, priority 2020, published 2024)
# At least one compound was matched to its structure with a doubt left.
# Tested on: primary HNECs
# Experiment: Signaling inhibitors on P1-induced TSLP expression
# Type: cell-based, human
# Conditions: 1 h pre-treatment, 100 nM
# Experimental: The expression of short and long form TSLP was quantified as described (Bjerkan, Schreurs et al. 2015, Dong, Hu et al. 2016). Briefly, total RNA was extracted using Trizol. Five hundred nanograms of RNA were treated with ezDNase Enzyme (Thermo Fisher) to remove genomic DNA, and reverse transcribed into cDNA using the kit SuperScript IV VILO Master Mix according to manufacturer instructions (Thermo Fisher). Quantitative PCR was performed using reported primers (Dong, Hu et al. 2016) and the PowerUp SYBR Green Master Mix according to manufacturer instructions (Thermo Fisher). Reactions were performed in triplicates, with glyceraldehyde-3-phosphate dehydrogenase (GAPDH) as the internal control. Amplification, data acquisition, and analysis were carried out using the LightCycler 480 Software (Roche, Mannheim, Germany). The levels of TSLP mRNA were normalized to the levels of GAPDH using the ΔCt method (Schmittgen and Livak 2008) and were presented as 2-ΔCt values.
# Signaling inhibitors Confluent HNEC cells in 24-well plate were pre-incubated with inhibitors for 1 h at 37° C. prior to P1 treatment. Inhibitors, namely dexamethasone (Dex) a NF-kB and MAPK inhibitor (used at 100 nM), and Cyclosporin A (CsA) a Calcineurin Inhibitor (used at 1.5 μM), were from Invivogen and used at the manufacturer's recommended concentrations. […]
structure (smiles),measurement,value
"C[C@@H]1C[C@H]2[C@@H]3CCC4=CC(=O)C=C[C@]4(C)[C@@]3(F)[C@@H](O)C[C@]2(C)[C@@]1(O)C(=O)CO [Dexamethasone, dexamethasone]",effect on P1-induced TSLP expression,had no effect on TSLP expression
